Measured values from US20110091485A1, “MODULATION OF CELL JUNCTIONS” (priority 2007, published 2011).
No constants are given. Whether binding was seen depends on the method and setting. Some binding calls cover weakened binding; strength is not graded here.

Protein sequences, listed by entry. Tags and fused reporters are not part of them. Lines headed by an entry give the natural chain unless they say otherwise; changes in a name come on top.
UniProt Q05655: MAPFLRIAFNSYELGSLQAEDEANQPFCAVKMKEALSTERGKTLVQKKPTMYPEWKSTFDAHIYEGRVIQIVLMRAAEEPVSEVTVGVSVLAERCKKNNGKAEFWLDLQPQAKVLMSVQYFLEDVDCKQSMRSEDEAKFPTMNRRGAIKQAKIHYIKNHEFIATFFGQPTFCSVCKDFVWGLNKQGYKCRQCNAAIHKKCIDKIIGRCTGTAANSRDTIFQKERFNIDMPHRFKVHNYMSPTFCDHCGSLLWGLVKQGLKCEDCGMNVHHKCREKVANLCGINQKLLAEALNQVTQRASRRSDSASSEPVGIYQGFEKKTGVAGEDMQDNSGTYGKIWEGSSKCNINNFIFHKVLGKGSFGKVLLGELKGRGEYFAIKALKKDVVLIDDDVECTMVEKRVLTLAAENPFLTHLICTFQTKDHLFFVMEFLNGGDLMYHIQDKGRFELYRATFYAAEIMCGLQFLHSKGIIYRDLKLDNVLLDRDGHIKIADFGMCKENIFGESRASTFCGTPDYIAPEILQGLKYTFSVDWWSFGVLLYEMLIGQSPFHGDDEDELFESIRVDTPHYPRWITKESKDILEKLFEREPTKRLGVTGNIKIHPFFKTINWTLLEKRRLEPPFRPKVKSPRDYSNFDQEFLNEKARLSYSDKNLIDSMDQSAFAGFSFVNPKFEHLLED

Target: T1, human Gp140 (CDCP1, Cub Domain Containing Protein 1), 140 kDa transmembrane glycoprotein (human) (UniProt Q9H5V8)
T1 sequence (looked up): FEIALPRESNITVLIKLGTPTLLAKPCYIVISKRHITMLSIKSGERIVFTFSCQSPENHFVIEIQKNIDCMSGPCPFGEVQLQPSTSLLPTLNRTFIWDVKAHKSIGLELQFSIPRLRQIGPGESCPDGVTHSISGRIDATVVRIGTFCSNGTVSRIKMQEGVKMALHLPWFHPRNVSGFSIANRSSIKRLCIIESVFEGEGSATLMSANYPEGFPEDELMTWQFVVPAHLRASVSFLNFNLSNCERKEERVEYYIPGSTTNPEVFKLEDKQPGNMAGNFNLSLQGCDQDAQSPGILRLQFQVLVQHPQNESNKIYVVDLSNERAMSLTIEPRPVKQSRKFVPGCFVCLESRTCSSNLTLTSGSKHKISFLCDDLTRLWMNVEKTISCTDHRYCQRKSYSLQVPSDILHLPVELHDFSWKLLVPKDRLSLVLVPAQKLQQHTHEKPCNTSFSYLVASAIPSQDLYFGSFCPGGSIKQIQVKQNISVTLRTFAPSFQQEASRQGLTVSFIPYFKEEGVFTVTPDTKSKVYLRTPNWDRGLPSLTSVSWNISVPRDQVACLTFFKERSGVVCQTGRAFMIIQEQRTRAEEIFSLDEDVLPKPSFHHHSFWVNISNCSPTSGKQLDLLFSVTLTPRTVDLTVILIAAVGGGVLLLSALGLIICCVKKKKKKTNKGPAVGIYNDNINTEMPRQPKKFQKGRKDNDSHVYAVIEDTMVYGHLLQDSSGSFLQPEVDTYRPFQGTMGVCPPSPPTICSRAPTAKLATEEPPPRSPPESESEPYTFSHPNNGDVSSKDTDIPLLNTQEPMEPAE
Assay: keratinocytes treated with ActGp140 mAb; method not described there

binding: binds
Substance: protein kinase C delta (PKCδ) (from UniProt Q05655 1-676) (enzyme)
